No constants are given. Whether binding was seen depends on the method and setting. In cells and extracts the contact can be indirect. Some entries that bind do so weakly or less than the wild type. Where a sequence is shown, tags or fusion partners need not be part of it.
Biological target: T1, Flag-tagged SDC1 (UniProt P18827)
T1 sequence: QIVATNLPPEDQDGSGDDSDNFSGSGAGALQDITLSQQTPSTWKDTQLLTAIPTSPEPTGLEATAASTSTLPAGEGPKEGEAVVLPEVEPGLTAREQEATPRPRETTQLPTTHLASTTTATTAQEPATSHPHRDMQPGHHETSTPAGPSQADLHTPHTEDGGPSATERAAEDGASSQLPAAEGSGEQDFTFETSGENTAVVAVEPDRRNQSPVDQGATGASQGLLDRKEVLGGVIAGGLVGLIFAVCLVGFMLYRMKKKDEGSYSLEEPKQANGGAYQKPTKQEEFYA
Assay: co-IP; HCE-2 cells transiently transfected with 3 ug pFLAG-plasmid and 3 ug MYC-plasmid; lysed by sonication in IP buffer 24 h after transfection; anti-FLAG or anti-MYC antibody, protein G agarose, 4 °C overnight; Western blot for CXCL14 and SDC1

B1: MYC-tagged CXCL14 (ligand, UniProt O95715 35-111)
chain: SKCKCSRKGPKIRYSDVKKLEMKPKYPHCEEKMVIITTKSVSRYRGQEHCLHPKLQSTKRFIKWYNAWNEKRRVYEE
- binding: binds
